Results on one substance are retold here after publication PMC11299418.

Chains of the proteins cited; added tags and fusions are not shown.
UniProt P52480: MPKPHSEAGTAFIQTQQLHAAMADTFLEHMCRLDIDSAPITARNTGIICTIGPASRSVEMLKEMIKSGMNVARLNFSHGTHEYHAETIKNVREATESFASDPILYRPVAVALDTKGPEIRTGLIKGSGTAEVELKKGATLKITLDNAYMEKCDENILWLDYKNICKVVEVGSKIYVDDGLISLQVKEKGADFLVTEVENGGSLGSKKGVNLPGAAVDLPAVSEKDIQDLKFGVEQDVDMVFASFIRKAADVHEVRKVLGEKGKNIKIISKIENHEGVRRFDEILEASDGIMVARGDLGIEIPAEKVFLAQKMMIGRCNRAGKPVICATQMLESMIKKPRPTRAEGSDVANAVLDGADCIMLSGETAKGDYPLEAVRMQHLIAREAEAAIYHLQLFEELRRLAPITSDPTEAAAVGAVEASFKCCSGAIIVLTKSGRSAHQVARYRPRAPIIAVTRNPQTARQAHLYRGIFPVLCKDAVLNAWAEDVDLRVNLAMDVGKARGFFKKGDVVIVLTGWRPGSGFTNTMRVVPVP

No constants are given. Whether binding was seen depends on the method and setting. In cells and extracts the contact can be indirect. Some results given as binding are weak or reduced against the parent protein; the word gives no strength.

This experiment concerns the target T1, cluster of differentiation 74 (CD74) (mouse (endogenous in peritoneal macrophages)) (UniProt P04441).
T1 sequence: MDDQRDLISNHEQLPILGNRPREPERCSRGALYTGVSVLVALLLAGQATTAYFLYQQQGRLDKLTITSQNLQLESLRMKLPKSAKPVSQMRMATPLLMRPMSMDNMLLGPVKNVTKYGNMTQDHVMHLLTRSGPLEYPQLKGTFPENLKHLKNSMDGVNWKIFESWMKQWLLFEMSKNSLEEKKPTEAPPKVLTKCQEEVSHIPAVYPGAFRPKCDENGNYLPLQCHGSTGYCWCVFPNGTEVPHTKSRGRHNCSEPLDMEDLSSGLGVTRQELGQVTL
The experiment in a line: co-IP; endogenous proteins in peritoneal macrophages; which protein was precipitated is not told.

With “pyruvate kinase M2 (PKM2) (from UniProt P52480 1-531) (enzyme)”, the binding result is reported as “binds”.
